Measured values from US20150098945A1 (Daiichi Sankyo, published 2015).
No constants are given. Whether binding was seen depends on the method and setting. Some results given as binding are weak or reduced against the parent protein; the word gives no strength. Tags and fused reporters may be left off the sequences shown.

Protein sequences, listed by entry. Tags and fused reporters are not part of them. Lines headed by an entry give the natural chain unless they say otherwise; changes in a name come on top.
UniProt Q8WZ75: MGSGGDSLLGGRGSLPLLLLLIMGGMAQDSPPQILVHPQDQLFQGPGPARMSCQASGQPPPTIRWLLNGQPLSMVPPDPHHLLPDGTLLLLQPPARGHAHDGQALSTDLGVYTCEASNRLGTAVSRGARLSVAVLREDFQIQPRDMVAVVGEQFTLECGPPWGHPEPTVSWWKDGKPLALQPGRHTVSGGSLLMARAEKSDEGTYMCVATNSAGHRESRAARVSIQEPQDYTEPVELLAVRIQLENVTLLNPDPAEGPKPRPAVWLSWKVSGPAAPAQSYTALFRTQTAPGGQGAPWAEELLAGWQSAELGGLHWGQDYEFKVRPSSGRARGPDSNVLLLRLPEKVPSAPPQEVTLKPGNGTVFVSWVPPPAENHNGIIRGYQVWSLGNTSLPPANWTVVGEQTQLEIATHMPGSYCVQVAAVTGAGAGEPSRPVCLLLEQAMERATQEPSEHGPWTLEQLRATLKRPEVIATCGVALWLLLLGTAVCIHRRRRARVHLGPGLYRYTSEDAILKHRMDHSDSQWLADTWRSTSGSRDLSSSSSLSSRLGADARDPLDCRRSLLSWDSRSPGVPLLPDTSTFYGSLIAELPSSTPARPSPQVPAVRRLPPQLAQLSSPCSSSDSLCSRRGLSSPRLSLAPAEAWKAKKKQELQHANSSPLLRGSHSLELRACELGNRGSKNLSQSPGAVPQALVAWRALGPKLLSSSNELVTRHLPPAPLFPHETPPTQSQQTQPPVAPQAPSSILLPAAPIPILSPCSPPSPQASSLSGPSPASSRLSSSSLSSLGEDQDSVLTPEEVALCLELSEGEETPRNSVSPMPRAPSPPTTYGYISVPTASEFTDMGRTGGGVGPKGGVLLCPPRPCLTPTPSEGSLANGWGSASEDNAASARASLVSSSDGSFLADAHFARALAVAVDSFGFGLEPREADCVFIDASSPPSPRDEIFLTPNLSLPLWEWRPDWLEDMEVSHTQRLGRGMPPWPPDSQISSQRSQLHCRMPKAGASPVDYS

Legend:
[1] = biological target: T1, N-terminal FLAG-tagged human ROBO4 extracellular region/domain deletion variant hROBO4-46 (human) (UniProt Q8WZ75); assay: flow cytometry on transfected HEK293 cells, 10 µg/mL
T1 sequence: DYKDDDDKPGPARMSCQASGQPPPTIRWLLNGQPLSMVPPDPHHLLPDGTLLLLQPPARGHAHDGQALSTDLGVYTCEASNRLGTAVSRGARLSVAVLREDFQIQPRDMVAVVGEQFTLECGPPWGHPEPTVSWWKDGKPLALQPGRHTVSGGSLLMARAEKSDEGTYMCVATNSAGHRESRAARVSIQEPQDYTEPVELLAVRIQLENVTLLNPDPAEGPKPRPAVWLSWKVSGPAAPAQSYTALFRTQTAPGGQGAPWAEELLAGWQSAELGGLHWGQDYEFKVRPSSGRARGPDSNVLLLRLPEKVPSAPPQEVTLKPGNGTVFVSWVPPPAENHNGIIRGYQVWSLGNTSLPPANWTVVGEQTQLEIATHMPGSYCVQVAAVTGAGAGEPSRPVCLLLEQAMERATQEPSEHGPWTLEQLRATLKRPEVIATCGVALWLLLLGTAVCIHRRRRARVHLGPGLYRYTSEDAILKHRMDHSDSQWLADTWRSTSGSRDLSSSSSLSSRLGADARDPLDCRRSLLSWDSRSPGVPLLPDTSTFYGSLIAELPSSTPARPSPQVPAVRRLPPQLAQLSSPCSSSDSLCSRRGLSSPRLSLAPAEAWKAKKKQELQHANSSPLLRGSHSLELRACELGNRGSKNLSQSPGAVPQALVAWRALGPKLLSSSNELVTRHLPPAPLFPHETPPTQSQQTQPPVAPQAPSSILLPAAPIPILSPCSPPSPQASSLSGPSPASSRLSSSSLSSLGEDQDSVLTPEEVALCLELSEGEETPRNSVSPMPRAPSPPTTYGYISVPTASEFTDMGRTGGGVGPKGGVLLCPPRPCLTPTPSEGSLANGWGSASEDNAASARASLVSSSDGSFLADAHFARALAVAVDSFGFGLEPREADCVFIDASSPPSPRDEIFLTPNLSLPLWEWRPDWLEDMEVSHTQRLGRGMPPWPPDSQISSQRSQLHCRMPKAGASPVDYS

[2] = biological target: T1, N-terminal FLAG-tagged human ROBO4 extracellular region/domain deletion variant hROBO4-46 (human); assay: flow cytometry, HEK293 cells transfected with pCI-FLAG-hROBO4-46, antibody at 10 µg/mL, anti-mouse IgG FITC; control histogram IgG (Mouse IgG2a)

binding [1]: binds
binding [2]: binds
B1: anti-ROBO4 mouse monoclonal antibody MAb1 (antibody, mouse IgG1, V domains shown)
VH: EVQLVESGGGLVKPGGSLKLSCAASGFTFSTYAMSWVRQTPEKRLEWVATISNGGTYTYYPDSVKGRFTISRDNAENTLYLQMSSLRSEDTAMYFCARLIYYDYLDYWGHGTTLTVSS
VL: DAVMTQTPLSLPVSLGDQASISCRSSQSLENSNGNTYLNWYFQKPGQSPQLLIYRVSNRFSGVLDRFSGSGSGTDFTLKISRVEAEDFGVYFCLQVTHVPWTFGGGTKLEIKR
notes: Mouse IgG1 (gamma1), kappa light chain, purified from hybridoma supernatant; also called parent antibody MAb1
